The values below come from PubChem BioAssay AID2685 (National Center for Advancing Translational Sciences (NCATS), 2010).

Some of the results follow. The main result of the screen is listed elsewhere. These columns were measured beside it and carry no call. Most of these compounds were active or inconclusive in the main read-out, so they are no random draw. The note in brackets gives the kind of curve behind each potency; many fits are weak.

A short description of this test: qHTS Assay for Lipid Storage Modulators in Drosophila S3 Cells.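 On cell number change: cells counted by Cell Tracker Red CMTPX staining in the red channel.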 The note with it: BODIPY lipid droplet fluorescence, 18-24 h; for cell number change: measured here: cell count max response, cells fed with added oleic acid. The procedure, abridged: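 Drosophila S3 cells loaded with oleic acid (400 uM, as added) and compounds at several concentrations; lipid droplets imaged by 488-nm laser-scanning cytometry, 500–530 nm intensity and object ratio to cell channel. Percent activity normalized to 20 uM Triacsin C.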

Where [1] appears, read: measured here: lipid fluorescence (Fed channel) AC50, cells fed with added oleic acid.
[2] abbreviates: measured here: cell number channel AC50, cells fed with added oleic acid.

For the compound `Cc1cc(-c2nnc(SCc3ccccn3)o2)no1`, the cell number change was 7.52%. In addition, the AC50 under setting [1] is 2.31 µM [rising, partial curve].

For the compound `O=C1CCCC2=C1C1(CCCCC1)N=C(Nc1nc3ccccc3o1)N2`, the cell number change was -26.3%. For the same compound, the AC50 under setting [1] was 18.4 µM [falling, partial curve].

Take `CCc1cc[n+](C2=C([O-])c3ccccc3C(=O)/C2=N\S(=O)(=O)c2cccs2)cc1`: under setting [1], the AC50 was 16.4 µM [falling, single point].

In the case of `COc1ccc(CNC(=S)N/N=C(\C)c2ccc(OC)cc2)cc1`, the cell number change amounted to 4.68%.

For the compound `COCCNC(=O)CN(C(=O)CCC(=O)Nc1ccccn1)c1ccc(F)c(Cl)c1`, the cell number change turned out to be 10.3%.

As for `CC(=O)c1ccc(NC(=O)CSc2nnc(-c3ccncc3)n2C2CC2)cc1`, the cell number change was -30%. In addition, under setting [2], the concentration at half-maximal activity (AC50) was 32.6 µM [falling, single point]. Under setting [1], the AC50 is 29.1 µM [falling, single point].

For `O=c1[nH]n(-c2cccc(Cl)c2)c2ncccc12`, the cell number change turned out to be 17.1%. For the same compound, the half-maximal activity concentration (AC50) under setting [1] was 5.17 µM [rising, partial curve, poor fit].

Regarding `Cc1nnc(NC(=O)CSc2nnc(CNC(=O)c3ccc(F)cc3)o2)s1`, the cell number change was found to be 7.77%.

Turning to `CCc1cc2c(=O)c(-c3nc4ccccc4n3C)c(COCC(=O)O)oc2cc1O`, the cell number change is -11.2%.

As to `COc1cccc(NC(=S)N2CCn3cccc3C2c2cccnc2)c1` (stereo not drawn), the half-maximal activity concentration (AC50) under setting [1] is 0.58 µM [rising, single point].

For the compound `COc1ccc(N(C(=O)c2snc(C(N)=O)c2N)C(C(=O)NC2CCCC2)c2cccs2)cc1OC` (stereo not drawn), the cell number change is -15.2%. Besides, under setting [1], the AC50 was 29.1 µM [falling, single point].

On to `c1ccc2c(c1)CC1(CCCC1)N=C2N1CCOCC1`, for which the cell number change amounted to 8.77%. The half-maximal activity concentration (AC50) under setting [1] was 6.51 µM [falling, single point].

Turning to `CC(CC#CCN1CCOCC1)OCCC#N` (stereo not drawn), the cell number change is -9.27%.

Turning to `O=C(c1ccccc1)N1CCN(S(=O)(=O)N2CCOCC2)CC1`, the cell number change was -1.25%. For the same compound, the AC50 under setting [1] was 6.51 µM [rising, single point].

Turning to `CCCCN(Cc1ccco1)C(=O)C1CCCN(c2ncnc3c2nc2n3CCCCC2)C1` (stereo not drawn), the cell number change was -23.6%. Further, the AC50 under setting [1] was 23.1 µM [rising, single point].

As for `N#Cc1cc2c(cc1NC(=O)CCn1cnnn1)OCO2`, the cell number change was determined as 0.989%. Moreover, the AC50 under setting [1] was 6.51 µM [rising, single point].

As to `CCNC(=O)N1C(=O)C2(OCCO2)c2ccccc21`, the cell number change was -44.1%. Under setting [2], the concentration at half-maximal activity (AC50) was 11.6 µM [falling, partial curve]. Besides, the concentration at half-maximal activity (AC50) under setting [1] was 0.00411 µM [falling, full curve, poor fit].

On to `Cn1ccnc1SCC(=O)c1cc2ccccc2o1`, for which the cell number change was -1.21%.

In the case of `N=c1c2c3c(sc2ncn1CCCO)CCCC3`, the cell number change was 24.1%. In addition, the AC50 under setting [1] was 4.11 µM [falling, single point].

Take `COc1nc(-c2ccccc2)ccc1-c1noc(COc2ccccc2)n1`: the cell number change is 77.1%. Further, under setting [2], the concentration at half-maximal activity (AC50) is 29.1 µM [rising, single point]. For the same compound, under setting [1], the AC50 is 3.66 µM [rising, partial curve].

In the case of `Cc1cc(N)n2ncc(-c3ccc(F)cc3)c2n1`, the cell number change came out at 57.3%. Also, under setting [2], the AC50 is 3.26 µM [rising, full curve]. The AC50 under setting [1] is 29.1 µM [rising, single point].

For `Cc1ccc2[nH]c(=O)c(CN(Cc3cccs3)C(=S)NCC3CCCO3)cc2c1` (stereo not drawn), the cell number change was 20.3%. Besides, the AC50 under setting [1] is 0.164 µM [rising, full curve, poor fit].

As for `O=C1CCCc2c1cc(-c1ccccc1)n2-c1ccccc1`, the cell number change is 10.5%. The AC50 under setting [1] is 0.651 µM [falling, single point].

For `CCc1c(C(=O)NNC(=S)Nc2ccc(S(=O)(=O)Nc3ncccn3)cc2)csc1C`, the cell number change was determined as 19.4%. In addition, the AC50 under setting [1] is 4.11 µM [rising, partial curve, poor fit].

Turning to `CCN(C(=O)C(C)N1C(=O)/C(=C/c2ccco2)SC1=S)C1CCS(=O)(=O)C1` (stereo not drawn), the cell number change stood at 4.58%. For the same compound, the AC50 under setting [1] is 20.6 µM [rising, single point].

With `O=C(O)CSc1nc2ccc(Cl)cc2[nH]1`, the cell number change came out at 37.5%. Also, the AC50 under setting [2] was 0.231 µM [rising, full curve].

In the case of `Cc1ccccc1NC(=O)NCc1ccco1`, the cell number change worked out at 31.6%. Moreover, under setting [2], the AC50 was 0.206 µM [rising, partial curve, poor fit].

As for `CCn1nc([N+](=O)[O-])c(C(C#N)c2nc3ccccc3n2C)c(Cl)c1=O` (stereo not drawn), the half-maximal activity concentration (AC50) under setting [1] was 13 µM [rising, single point].

For `C/C(=N\Nc1nc(C)cc(-c2ccccc2)n1)c1ccc(F)cc1`, the cell number change is 6.47%.

For `CC(CC(=O)Nc1ccccc1C(F)(F)F)c1ccccc1` (stereo not drawn), the cell number change is 3.76%. Also, the AC50 under setting [2] is 0.731 µM [rising, full curve, poor fit].

As to `COc1cccc(/C=N/Nc2nnc(C)n2N)c1OCc1ccccc1Cl`, the cell number change is -34.7%. Besides, the concentration at half-maximal activity (AC50) under setting [1] was 29.1 µM [falling, single point].

As to `COC(=O)C1=CO[C@@H](O[C@@H]2O[C@H](CO)[C@@H](O)[C@H](O)[C@H]2O)[C@H]2[C@@H]1C(=O)C[C@@H]2C`, the cell number change was -8.78%. In addition, the AC50 under setting [1] was 0.146 µM [rising, full curve, poor fit].

Turning to `Cc1ccc(/C(O)=C2\C(=O)C(=O)N(c3cc(C)on3)C2c2cccc(Cl)c2)cc1` (stereo not drawn), the cell number change is -22.9%. The AC50 under setting [1] was 29.1 µM [falling, partial curve].

`O=S(=O)(NCC1CCCO1)c1ccc(S(=O)(=O)N(Cc2ccc(F)cc2)Cc2ccccn2)cc1` (stereo not drawn): the cell number change was 16.4%. For the same compound, the AC50 under setting [1] is 3.26 µM [falling, partial curve].

For `O=C(O)c1ccccc1NC(=O)c1ccccc1-c1ccccc1C(=O)O`, the cell number change was -6.08%. Moreover, the AC50 under setting [1] was 20.6 µM [rising, partial curve, poor fit].

Regarding `CN1CCc2c(sc3c2c(=O)n(-c2ccccc2)c2n[nH]c(=S)n32)C1`, the cell number change was 21.7%. Besides, the AC50 under setting [1] was 23.1 µM [falling, single point].

Regarding `CCc1nnc(NC(=O)CSc2nc(-c3ccccc3)cc(-c3ccc(OC)cc3)c2C#N)s1`, the cell number change turned out to be 115%. Also, the half-maximal activity concentration (AC50) under setting [2] is 16.4 µM [rising, partial curve]. Moreover, under setting [1], the concentration at half-maximal activity (AC50) was 1.64 µM [rising, partial curve, poor fit].

Regarding `CCc1ccccc1NC(=O)CN1CCC(NC(=O)COC)CC1`, the cell number change is -72.4%. Moreover, the AC50 under setting [2] is 18.4 µM [falling, single point]. For the same compound, the AC50 under setting [1] was 18.4 µM [falling, partial curve].

On to `COc1cccc(NC(=O)CNC(=O)c2cccs2)c1`, for which the cell number change amounted to 54.6%. Besides, the half-maximal activity concentration (AC50) under setting [2] was 29.1 µM [rising, single point].

As for `COc1ccc(F)cc1S(=O)(=O)N1CCCC(C)C1` (stereo not drawn), the cell number change was determined as 23.3%. Also, the half-maximal activity concentration (AC50) under setting [1] is 23.1 µM [falling, partial curve].

For the compound `COc1ccccc1N1CC(C(=O)Nc2cccc(C(=O)O)c2)CC1=O` (stereo not drawn), the concentration at half-maximal activity (AC50) under setting [1] was 5.8 µM [falling, partial curve].

Turning to `O=C1N(Cc2ccc3c(c2)OCO3)c2ccccc2C1(O)c1c[nH]c2ccccc12` (stereo not drawn), the cell number change was 24.1%. Also, the half-maximal activity concentration (AC50) under setting [2] was 0.259 µM [rising, full curve, poor fit]. In addition, the AC50 under setting [1] was 6.51 µM [rising, partial curve, poor fit].

For the compound `COc1ccccc1-c1cc(C(F)(F)F)nc(NCc2cccs2)n1`, the cell number change was -1.01%.

For `COc1ccc(C(c2oc(CO)cc(=O)c2O)c2oc(CO)cc(=O)c2O)cc1OC`, the cell number change was determined as 0.113%. Besides, the AC50 under setting [1] was 1.16 µM [falling, full curve, poor fit].

With `CCOc1ccc(CNC23CN4CN(CN(C4)C2)C3)cc1`, the cell number change turned out to be 8.12%.

Turning to `Cc1nc(/N=C\c2ccc(N(C)C)cc2)sc1C`, the cell number change is -14.1%. Also, under setting [1], the AC50 was 0.92 µM [rising, full curve, poor fit].

For the compound `COc1ccc2c(CC(=O)Nc3ncc(C)s3)coc2c1`, the cell number change turned out to be 40.3%. Also, the AC50 under setting [2] was 11.6 µM [rising, partial curve, poor fit].

For the compound `CCc1nnc(NC(=O)CSc2nc(C)cs2)s1`, the cell number change came to 23.7%.

`CCOC(=O)C(C)Sc1ncnc2c1nnn2-c1ccc(F)cc1` (stereo not drawn): the cell number change is -31.8%. Moreover, the half-maximal activity concentration (AC50) under setting [2] is 1.64 µM [falling, full curve]. Also, the AC50 under setting [1] was 29.1 µM [falling, single point].

Consider `CCC(Oc1ccc2c(=O)c(-c3ccccc3OC)coc2c1)C(=O)OCc1ccccc1` (stereo not drawn), for which the cell number change was -40.4%. Moreover, under setting [2], the half-maximal activity concentration (AC50) was 3.66 µM [falling, full curve].

For the compound `Cc1ccc(S(=O)(=O)NCCn2nc(C)nc2C)cc1`, the cell number change came out at 10.5%.

As to `COCc1cc(=O)n2[nH]c(-c3ccc(C)cc3)cc2n1`, the cell number change is -76.4%. Also, the half-maximal activity concentration (AC50) under setting [2] was 25.9 µM [falling, single point]. The half-maximal activity concentration (AC50) under setting [1] was 5.17 µM [falling, single point].

For `Cc1cc(OCC(=O)NCCCn2ccnc2)c2c(C)c(C)c(=O)oc2c1`, under setting [1], the AC50 is 0.731 µM [falling, full curve, poor fit].

Turning to `CCn1c(=O)c2ccccc2n(Cc2cccc(C)c2)c1=O`, the cell number change turned out to be 26.4%. Moreover, under setting [1], the concentration at half-maximal activity (AC50) was 11.6 µM [rising, partial curve].

As for `Cc1nc(NC(=O)/C=C/c2ccccc2)n[nH]1`, the cell number change is -41.3%. For the same compound, under setting [2], the concentration at half-maximal activity (AC50) is 20.6 µM [falling, single point]. For the same compound, the concentration at half-maximal activity (AC50) under setting [1] was 25.9 µM [falling, single point].

With `COc1ccccc1C(=O)Nc1ccc(NC(=O)c2ccco2)c(C)c1`, the cell number change is -10.8%. Besides, the AC50 under setting [1] is 0.058 µM [falling, full curve, poor fit].

Take `Cc1ccc(C)c(NC(=O)CN(C)C(=O)c2cccc(N3C(=O)CCC3=O)c2)c1`: the cell number change stood at 150%. In addition, the AC50 under setting [2] was 18.4 µM [rising, partial curve]. The concentration at half-maximal activity (AC50) under setting [1] was 29.1 µM [rising, single point].

For `Cc1cccc(NC2=CC(=O)OC(C)C2)c1` (stereo not drawn), the cell number change is 26.9%. Moreover, the AC50 under setting [2] was 0.651 µM [falling, full curve]. For the same compound, the AC50 under setting [1] was 6.51 µM [falling, single point].

Turning to `CN(CC(O)COc1ccccc1F)C1CCCCC1` (stereo not drawn), the cell number change is -16.1%. Besides, under setting [1], the concentration at half-maximal activity (AC50) was 35.5 µM [falling, single point].

As to `O=C(c1ccccn1)N1N=C2/C(=C/c3ccccc3)CCCC2C1c1ccccc1` (stereo not drawn), the cell number change was -0.804%. The concentration at half-maximal activity (AC50) under setting [2] is 2.31 µM [rising, partial curve].

On to `CCOc1ccccc1NC(=O)NS(=O)(=O)c1ccc(C)cc1`, for which the cell number change came to 6.09%. For the same compound, the AC50 under setting [2] is 4.61 µM [falling, single point].
